Measured values taken from article doi:10.1101/2021.09.29.461190.
No constants are given. Whether binding was seen depends on the method and setting. Tags and fused reporters may be left off the sequences shown.

Biological target: NET4B with C-terminal deletion including the IRQ domain, yeast two-hybrid fusion (Arabidopsis thaliana)
Assay: two-hybrid

B1: CA-RABG3a (Q67L), yeast two-hybrid fusion (protein, UniProt Q948K8 1-206)
chain: MATRRRTLLKVIVLGDSGVGKTSLMNQYVHKKFSMQYKATIGADFVTKELQIGEKLVTLQIWDTAGLERFQSLGAAFYRGADCCALVYDVNVLRSFDNLETWHEEFLKQASPSDPKTFPFIVLGNKIDVDGGSSRVVSDKKAADWCASNGNIPYFETSAKDDFNVDEAFLTIAKTALANEHEQDIYFQGIPDAVTENEPKGGGCAC
  binding: no binding
